In paper PMC6656771:
Results are given in words; binding and its absence hold for the method and conditions named. In cells and extracts the contact can be indirect. Some entries that bind do so weakly or less than the wild type. For some of these results: Where a sequence is shown, tags or fusion partners need not be part of it.

Protein sequences, listed by entry. Tags and fused reporters are not part of them.
UniProt B1AY13: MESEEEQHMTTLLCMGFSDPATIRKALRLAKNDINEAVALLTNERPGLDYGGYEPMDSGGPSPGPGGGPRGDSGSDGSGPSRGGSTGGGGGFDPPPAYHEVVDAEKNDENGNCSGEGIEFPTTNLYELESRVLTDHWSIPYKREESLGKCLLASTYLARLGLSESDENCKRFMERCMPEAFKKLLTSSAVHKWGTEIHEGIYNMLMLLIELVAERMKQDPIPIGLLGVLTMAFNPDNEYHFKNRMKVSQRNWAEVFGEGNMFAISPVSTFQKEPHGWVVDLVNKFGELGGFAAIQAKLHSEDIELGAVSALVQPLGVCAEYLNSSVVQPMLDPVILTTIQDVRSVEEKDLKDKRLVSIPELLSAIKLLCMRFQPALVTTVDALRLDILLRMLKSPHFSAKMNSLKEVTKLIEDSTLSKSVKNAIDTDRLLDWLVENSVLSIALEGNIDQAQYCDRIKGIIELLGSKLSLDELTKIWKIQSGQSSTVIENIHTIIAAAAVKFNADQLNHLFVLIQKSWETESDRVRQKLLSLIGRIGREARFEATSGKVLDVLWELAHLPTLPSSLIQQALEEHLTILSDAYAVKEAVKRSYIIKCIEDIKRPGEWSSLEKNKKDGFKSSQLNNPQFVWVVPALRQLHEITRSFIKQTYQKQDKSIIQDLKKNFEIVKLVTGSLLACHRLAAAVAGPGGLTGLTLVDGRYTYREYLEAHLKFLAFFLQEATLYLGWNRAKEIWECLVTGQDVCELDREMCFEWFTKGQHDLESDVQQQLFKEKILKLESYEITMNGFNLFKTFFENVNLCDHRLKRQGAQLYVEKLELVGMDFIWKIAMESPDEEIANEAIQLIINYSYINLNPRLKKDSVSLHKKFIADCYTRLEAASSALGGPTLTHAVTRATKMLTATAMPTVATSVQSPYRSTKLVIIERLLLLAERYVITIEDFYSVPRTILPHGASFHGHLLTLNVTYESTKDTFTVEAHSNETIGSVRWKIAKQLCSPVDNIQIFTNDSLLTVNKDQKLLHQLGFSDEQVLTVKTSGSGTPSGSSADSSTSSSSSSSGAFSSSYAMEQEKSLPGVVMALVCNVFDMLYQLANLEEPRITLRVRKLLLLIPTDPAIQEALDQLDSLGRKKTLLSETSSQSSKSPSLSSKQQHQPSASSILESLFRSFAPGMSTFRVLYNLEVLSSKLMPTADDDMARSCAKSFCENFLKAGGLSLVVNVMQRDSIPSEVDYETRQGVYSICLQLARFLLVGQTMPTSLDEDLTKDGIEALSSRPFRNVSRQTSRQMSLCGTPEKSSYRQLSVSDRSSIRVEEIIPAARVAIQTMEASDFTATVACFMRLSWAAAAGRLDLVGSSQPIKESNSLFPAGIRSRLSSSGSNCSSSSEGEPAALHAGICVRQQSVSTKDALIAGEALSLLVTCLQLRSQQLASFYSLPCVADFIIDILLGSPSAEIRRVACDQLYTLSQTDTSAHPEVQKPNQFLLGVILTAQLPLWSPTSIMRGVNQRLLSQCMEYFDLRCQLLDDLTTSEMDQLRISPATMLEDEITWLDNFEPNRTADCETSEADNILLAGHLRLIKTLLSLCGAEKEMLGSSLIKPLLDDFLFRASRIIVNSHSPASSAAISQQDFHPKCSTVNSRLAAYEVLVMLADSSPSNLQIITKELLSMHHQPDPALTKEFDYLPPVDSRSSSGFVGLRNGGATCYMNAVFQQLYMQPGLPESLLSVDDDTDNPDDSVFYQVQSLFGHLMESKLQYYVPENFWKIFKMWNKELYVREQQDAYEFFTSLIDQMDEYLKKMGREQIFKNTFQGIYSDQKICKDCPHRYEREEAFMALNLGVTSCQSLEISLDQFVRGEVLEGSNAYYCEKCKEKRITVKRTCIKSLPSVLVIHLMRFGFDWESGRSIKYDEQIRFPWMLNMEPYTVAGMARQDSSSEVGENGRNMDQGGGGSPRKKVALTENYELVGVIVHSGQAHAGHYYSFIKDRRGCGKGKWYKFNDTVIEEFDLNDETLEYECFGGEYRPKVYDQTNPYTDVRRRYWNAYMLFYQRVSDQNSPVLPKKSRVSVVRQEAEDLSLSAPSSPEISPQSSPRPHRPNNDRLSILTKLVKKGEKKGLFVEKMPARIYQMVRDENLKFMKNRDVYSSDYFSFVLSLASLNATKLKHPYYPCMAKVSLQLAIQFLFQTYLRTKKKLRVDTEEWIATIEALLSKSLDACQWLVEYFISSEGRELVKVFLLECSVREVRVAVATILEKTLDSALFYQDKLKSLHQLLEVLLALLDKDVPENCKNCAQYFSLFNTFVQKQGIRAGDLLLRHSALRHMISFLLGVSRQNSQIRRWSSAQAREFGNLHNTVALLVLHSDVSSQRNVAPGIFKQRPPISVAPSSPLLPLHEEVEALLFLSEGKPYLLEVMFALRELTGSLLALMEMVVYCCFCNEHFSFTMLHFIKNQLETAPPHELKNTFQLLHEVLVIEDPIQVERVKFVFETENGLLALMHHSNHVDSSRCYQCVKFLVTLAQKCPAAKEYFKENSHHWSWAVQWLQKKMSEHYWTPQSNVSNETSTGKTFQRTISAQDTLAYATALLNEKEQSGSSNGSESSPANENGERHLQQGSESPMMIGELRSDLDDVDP
UniProt Q9NZ08: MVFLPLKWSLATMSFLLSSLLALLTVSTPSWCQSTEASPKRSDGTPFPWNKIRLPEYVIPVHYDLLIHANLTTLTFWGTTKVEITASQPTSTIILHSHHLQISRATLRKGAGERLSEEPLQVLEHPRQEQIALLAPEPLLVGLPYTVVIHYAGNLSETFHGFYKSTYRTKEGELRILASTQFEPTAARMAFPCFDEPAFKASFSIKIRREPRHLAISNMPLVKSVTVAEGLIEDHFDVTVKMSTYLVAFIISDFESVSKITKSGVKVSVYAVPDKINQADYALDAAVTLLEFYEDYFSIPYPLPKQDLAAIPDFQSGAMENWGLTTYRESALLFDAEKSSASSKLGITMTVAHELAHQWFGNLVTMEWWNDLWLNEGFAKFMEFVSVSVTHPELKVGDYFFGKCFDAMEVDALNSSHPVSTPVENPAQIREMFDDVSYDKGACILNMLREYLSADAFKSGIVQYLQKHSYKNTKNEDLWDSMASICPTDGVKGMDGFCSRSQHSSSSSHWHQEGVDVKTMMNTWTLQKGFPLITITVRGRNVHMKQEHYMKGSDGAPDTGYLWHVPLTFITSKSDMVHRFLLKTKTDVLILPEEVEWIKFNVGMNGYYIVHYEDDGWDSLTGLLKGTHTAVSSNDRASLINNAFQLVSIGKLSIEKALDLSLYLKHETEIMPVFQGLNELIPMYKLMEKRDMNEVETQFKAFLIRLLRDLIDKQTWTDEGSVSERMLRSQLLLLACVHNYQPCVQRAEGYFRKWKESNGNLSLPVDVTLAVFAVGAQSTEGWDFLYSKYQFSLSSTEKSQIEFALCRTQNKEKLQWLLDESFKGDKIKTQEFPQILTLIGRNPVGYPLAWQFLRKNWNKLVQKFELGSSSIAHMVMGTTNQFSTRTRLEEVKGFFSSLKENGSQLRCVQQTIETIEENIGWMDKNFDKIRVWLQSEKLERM

Columns and labels:
USP22 = target: T1, USP22 (UniProt Q5DU02); experiment: co-IP; Supplementary Figs. 2b and 5a-c; cells, constructs and antibodies not told in the text shown; immunoprecipitation is the only interaction method in the methods
T1 sequence: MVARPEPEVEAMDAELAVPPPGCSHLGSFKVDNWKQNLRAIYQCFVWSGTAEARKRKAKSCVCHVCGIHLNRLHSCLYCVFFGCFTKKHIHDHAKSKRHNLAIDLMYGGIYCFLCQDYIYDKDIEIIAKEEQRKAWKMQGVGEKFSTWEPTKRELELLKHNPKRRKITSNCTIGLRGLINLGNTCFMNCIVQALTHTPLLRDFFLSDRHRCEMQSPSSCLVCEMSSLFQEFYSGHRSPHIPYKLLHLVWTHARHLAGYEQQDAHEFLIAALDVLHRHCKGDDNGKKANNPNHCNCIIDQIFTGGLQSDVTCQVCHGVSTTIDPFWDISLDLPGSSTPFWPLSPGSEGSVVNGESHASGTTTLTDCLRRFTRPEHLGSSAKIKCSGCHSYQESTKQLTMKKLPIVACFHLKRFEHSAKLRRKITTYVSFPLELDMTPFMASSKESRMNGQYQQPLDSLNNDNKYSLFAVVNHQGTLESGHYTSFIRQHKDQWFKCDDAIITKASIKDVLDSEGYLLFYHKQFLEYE

USP24 = USP24 (UniProt B1AY13); experiment: as above
[1] = target: T2, Flag-USP47 (Ubiquitin-Specific Protease 47) (UniProt Q96K76); experiment: co-IP; MEFs transfected with ERAP1 and/or Flag-USP47; whole-cell extracts in Triton Buffer (50 mM Tris-HCl pH 7.5, 250 mM sodium chloride, 50 mM sodium fluoride, 1 mM EDTA pH 8, 0.1% Triton); antibody overnight at 4 °C, Protein G- or Protein A-agarose beads, five washes, immunoblot; for Flag-USP47 with βTrCP also increasing amounts of ERAP1, Leu-SH for 24 h, or shERAP1
T2 sequence: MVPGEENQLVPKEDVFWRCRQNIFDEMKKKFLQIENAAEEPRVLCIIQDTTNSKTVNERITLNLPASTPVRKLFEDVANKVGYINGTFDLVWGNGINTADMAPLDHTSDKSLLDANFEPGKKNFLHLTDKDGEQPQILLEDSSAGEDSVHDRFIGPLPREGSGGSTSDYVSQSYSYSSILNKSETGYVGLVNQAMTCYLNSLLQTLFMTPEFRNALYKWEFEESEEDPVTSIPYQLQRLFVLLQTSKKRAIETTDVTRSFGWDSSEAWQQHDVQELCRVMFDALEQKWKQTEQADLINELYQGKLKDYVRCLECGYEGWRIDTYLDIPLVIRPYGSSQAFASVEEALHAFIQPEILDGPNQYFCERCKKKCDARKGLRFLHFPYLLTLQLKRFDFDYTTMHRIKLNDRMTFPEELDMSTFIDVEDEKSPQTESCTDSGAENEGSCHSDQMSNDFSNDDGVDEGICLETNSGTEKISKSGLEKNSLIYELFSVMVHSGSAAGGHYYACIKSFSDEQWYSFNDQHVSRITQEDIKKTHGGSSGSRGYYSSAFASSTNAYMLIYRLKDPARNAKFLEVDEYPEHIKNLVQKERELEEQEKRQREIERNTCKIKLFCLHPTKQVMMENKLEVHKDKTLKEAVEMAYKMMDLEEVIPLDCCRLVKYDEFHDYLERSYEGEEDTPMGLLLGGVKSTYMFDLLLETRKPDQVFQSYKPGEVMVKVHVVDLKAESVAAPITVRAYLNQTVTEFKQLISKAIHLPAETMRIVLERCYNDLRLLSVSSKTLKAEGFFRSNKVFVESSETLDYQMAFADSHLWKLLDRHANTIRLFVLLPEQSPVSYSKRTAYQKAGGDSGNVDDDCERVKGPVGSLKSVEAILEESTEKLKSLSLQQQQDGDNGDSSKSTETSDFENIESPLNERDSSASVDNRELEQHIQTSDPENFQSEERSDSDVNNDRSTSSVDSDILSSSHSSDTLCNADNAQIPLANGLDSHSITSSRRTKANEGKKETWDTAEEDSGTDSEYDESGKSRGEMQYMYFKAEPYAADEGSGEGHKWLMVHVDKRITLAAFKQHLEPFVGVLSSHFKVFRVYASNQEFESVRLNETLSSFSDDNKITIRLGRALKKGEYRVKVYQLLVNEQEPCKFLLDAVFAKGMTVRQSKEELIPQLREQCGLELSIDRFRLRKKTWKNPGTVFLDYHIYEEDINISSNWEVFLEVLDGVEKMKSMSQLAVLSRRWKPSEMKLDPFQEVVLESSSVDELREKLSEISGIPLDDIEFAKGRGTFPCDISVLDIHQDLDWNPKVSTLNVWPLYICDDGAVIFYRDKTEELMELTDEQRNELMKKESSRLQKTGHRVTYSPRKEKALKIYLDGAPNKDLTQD

[2] = target: T3, endogenous USP47 (Ubiquitin-Specific Protease 47) (mouse (endogenous in MEFs)) (UniProt Q8BY87); experiment: as above
T3 sequence: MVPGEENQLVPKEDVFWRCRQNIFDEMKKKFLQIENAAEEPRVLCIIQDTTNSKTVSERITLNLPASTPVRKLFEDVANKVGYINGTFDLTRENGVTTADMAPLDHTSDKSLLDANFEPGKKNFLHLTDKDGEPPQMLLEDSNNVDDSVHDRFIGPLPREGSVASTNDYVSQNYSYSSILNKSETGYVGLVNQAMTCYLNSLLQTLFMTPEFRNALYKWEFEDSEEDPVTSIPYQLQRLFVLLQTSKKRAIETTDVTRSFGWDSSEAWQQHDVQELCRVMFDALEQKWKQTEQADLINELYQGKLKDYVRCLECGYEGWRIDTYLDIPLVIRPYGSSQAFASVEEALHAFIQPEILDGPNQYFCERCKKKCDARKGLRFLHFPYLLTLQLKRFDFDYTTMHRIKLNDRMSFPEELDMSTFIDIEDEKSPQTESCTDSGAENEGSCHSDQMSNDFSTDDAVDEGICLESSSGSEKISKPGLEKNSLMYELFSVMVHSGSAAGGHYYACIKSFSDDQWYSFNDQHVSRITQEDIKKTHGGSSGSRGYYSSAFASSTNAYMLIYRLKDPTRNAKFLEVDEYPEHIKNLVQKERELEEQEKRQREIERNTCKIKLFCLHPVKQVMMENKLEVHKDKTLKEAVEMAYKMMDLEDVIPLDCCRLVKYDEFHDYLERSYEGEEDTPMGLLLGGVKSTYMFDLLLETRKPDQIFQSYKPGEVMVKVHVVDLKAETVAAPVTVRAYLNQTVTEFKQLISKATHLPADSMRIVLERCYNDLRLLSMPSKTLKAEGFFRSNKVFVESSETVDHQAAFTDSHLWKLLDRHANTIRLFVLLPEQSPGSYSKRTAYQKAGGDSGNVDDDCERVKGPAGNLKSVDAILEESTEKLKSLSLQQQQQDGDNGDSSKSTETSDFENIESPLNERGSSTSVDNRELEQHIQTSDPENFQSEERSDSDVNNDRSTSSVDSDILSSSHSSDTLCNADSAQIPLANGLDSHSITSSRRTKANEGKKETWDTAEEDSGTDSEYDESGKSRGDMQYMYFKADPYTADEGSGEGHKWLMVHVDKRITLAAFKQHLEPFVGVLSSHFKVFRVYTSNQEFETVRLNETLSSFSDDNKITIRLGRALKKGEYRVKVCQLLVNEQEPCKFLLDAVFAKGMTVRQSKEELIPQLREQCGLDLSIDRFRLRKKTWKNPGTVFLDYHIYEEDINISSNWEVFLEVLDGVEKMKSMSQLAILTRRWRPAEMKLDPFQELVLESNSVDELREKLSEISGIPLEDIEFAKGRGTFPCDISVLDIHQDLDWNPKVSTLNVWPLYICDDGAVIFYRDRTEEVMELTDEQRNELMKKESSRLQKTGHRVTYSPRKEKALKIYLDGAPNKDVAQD

- binding (USP22): no binding
- binding (USP24): no binding
- binding [1]: binds
- binding [2]: binds
Substance: endoplasmic reticulum aminopeptidase 1 (ERAP1) (from UniProt Q9NZ08 1-941) (enzyme)
